No constants are given. Whether binding was seen depends on the method and setting. Binding seen in cells or lysates may run through a third protein. Some binding calls cover weakened binding; strength is not graded here. For part of these data: Tags and fused reporters may be left off the sequences shown.
Legend:
[1] = biological target: T1, Pituitary tumor-transforming gene 1 (PTTG1) (human (endogenous in JKT-1, SEM-1 and TCAM2)) (UniProt O95997); test: co-IP; endogenous PTTG1 immunoprecipitated from TCAM2 lysate (IP α-PTTG1), Western blot for SPTBN1
T1 sequence: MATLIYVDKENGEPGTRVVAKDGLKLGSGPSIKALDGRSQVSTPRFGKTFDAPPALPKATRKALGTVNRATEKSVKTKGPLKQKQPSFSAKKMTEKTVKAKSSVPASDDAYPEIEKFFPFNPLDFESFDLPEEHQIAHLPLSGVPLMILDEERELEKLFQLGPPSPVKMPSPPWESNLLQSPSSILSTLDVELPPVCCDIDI

Sequences of proteins named here, by UniProt entry; tags and fusion partners are left off.
UniProt Q01082: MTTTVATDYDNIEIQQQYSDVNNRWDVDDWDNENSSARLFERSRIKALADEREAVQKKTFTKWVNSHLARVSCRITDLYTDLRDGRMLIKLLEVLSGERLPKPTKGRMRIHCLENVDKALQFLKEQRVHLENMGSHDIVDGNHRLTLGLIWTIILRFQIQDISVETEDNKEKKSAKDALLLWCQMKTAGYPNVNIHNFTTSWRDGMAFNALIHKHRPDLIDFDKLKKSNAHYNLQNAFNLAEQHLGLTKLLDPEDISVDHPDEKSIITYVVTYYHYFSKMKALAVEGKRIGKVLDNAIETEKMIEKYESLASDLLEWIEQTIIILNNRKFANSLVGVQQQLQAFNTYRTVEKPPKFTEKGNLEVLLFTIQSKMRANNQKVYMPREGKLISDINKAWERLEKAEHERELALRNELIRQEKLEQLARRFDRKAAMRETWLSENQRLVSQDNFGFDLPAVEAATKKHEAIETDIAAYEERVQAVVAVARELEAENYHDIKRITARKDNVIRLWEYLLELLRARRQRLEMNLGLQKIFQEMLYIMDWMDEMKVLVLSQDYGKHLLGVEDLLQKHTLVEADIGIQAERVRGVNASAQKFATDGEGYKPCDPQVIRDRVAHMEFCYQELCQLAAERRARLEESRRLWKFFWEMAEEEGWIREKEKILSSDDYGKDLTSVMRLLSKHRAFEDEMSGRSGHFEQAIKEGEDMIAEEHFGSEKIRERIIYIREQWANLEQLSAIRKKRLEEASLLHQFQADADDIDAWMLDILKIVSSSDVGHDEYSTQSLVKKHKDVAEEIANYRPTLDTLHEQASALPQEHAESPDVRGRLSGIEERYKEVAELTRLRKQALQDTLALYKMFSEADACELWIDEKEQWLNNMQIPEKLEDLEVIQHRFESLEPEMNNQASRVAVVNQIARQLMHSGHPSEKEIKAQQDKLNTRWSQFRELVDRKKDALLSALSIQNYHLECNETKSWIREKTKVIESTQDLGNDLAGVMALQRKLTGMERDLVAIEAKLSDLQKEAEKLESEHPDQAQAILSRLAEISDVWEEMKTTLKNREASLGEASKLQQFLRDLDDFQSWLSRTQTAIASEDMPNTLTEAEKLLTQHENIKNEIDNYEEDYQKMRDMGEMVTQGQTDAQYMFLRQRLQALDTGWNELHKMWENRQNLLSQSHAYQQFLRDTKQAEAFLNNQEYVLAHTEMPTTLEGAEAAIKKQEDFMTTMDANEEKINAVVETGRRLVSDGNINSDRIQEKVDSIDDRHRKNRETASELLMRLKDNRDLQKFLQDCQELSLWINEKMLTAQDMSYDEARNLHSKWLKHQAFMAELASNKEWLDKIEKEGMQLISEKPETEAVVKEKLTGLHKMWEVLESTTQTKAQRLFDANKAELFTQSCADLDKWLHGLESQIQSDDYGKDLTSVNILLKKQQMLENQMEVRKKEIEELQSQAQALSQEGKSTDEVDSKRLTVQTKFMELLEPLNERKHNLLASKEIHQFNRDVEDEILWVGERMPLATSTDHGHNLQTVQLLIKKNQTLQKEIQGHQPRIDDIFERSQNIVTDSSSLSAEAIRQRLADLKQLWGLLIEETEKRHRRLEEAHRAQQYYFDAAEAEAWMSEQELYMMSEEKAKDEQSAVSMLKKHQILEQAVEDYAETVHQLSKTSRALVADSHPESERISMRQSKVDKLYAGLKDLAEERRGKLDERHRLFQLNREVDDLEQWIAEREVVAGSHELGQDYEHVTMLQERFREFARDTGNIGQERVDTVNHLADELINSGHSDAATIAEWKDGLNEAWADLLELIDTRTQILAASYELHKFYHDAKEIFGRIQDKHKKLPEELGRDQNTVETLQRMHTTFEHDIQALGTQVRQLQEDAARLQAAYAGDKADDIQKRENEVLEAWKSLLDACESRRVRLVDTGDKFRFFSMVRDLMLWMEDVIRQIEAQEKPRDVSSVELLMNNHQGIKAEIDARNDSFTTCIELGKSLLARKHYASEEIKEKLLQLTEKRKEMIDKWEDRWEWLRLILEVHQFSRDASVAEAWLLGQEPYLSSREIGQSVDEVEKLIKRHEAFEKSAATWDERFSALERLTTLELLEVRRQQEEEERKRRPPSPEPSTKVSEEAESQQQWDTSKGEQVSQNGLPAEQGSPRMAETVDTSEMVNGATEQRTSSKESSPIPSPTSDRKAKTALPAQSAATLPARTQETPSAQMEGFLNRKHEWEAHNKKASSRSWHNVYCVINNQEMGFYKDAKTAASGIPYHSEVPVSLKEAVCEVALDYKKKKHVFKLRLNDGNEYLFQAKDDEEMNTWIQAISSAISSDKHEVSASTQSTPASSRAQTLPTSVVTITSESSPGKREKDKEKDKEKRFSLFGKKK

[2] = biological target: T1, Pituitary tumor-transforming gene 1 (PTTG1) (human (endogenous in JKT-1, SEM-1 and TCAM2)); test: co-IP; endogenous PTTG1 immunoprecipitated from JKT-1 and SEM-1 lysates (IP α-PTTG1), Western blot for SPTBN1
FLAG-PTTG1 = biological target: T2, FLAG-PTTG1 (UniProt O95997); test: co-IP; TCAM2 cells overexpressing FLAG-PTTG1 or FLAG-PTTG1Δ159; IP with M2 αFLAG antibody overnight at 4 °C, Dynabeads; IP lysis buffer 50 mM Tris-Cl pH 7.5, 150 mM NaCl, 1% Nonidet P-40, 1 mM EDTA; Western blot for endogenous SPTBN1, densitometry
T2 sequence: T1 sequence

Question: Which results are given for “Spectrin-βII-chain (SPTBN1) (from UniProt Q01082 1-2364)”?
Answer: binding [1]: binds; binding [2]: binds weakly; binding (FLAG-PTTG1): binds
